# Data: patent US20080214583A1, “7H-Pyrrolo[2,3-D]Pyrimidine Derivatives, As Well As Their Therapeutically Acceptable Salts, Pharmaceutical Preparations Containing Them And Process For Production The Active Agent” (priority 2004, published 2008)
# At least one peptide structure holds a part that was inferred or is arguable (an end, a ring closure or a residue). Bridge positions count the residues as written; N and C are the ends. Square brackets hold non-standard residues; d marks the D form. Peptide text beside a SMILES is read from it.
# Key:
# substance P (SP) release = assay: Inhibition of substance P (SP) release by radio immuno-assay (RIA) in vitro on electrically excited isolated rat trachea; settings: 500 nM, FIG. 8, versus solvent control
# [1] = Neuropathic nociceptive model (previous examinations); format: in vivo
# Wistar's female rat = assay: Chronic inflammation provoked by Freund's adjuvant (experimental model of rheumatoid arthritis); format: in vivo; settings: demonstrated formerly
smiles,measurement,setting,value
C[C@@H](O)[C@H](NC(=O)[C@@H]1CSSC[C@H](NC(=O)[C@H](N)Cc2ccccc2)C(=O)N[C@@H](Cc2ccc(O)cc2)C(=O)N[C@H](Cc2c[nH]c3ccccc23)C(=O)N[C@@H](CCCCN)C(=O)N1)C(N)=O [TT-232] (H-[dF]CY[dW]KCT-NH2; disulfide 2-6),effect on release of P-substance under electric excitation,substance P (SP) release,inhibiting effect
same,effect in the neuropathic nociceptive model,[1],effective
same,antiphlogistic effect against chronic inflammation provoked by Freund's adjuvant,Wistar's female rat,antiphlogistic effect
